Values are relative to the signal before dosing, not to a vehicle control; the signal also falls without drug.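 Labels refer to human fibroblasts, largely primary: uterine (C12385, HUF), lung (H6013), bone (Hs27A), adrenal (HADF), skin (WS1), plus mammary HMF and breast cancer-associated Hs343T. Cancer lines are basal-like or mesenchymal-like triple-negative breast cancer. The paper counts as hits responses shifting over 3x the replicate standard deviation. The tissue of the other fibroblasts is not given here.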
Test system: HCC1143
Assay: relative JC-1 red fluorescence (viability) vs pre-drug, coculture with fibroblast (fraction); higher = more viable cancer cells
Details: 1 µM
Method: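 JC-1 labelled TNBC cells cocultured 1:1 (1,500 cells each) with CellTrace Violet stained primary or stromal fibroblasts in 384-well plates in FluoroBrite medium, treated with one of 42 anticancer drugs at 0.1, 1, 10 or 100 uM. JC-1 red fluorescence (mitochondrial integrity in cancer cells only) was read by plate reader every 8 h for 72 h. Values are normalised to each well's pre-drug value. The stock of one drug was tenfold lower, so its dose labels may be too high.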

CC(=O)O[C@@]12CO[C@@H]1C[C@H](O)[C@@]1(C)C(=O)[C@H](O)C3=C(C)[C@@H](OC(=O)[C@H](O)[C@@H](NC(=O)OC(C)(C)C)c4ccccc4)C[C@@](O)([C@@H](OC(=O)c4ccccc4)[C@H]21)C3(C)C [Docetaxel]
relative JC-1 red fluorescence
Details	8 h	16 h	24 h	32 h	40 h	48 h	56 h	64 h	72 h
coculture fibroblast: C12385	0.864	0.793	0.696	0.62	0.555	0.534	0.512	0.503	0.52
coculture fibroblast: H6013	0.765	0.6757	0.632	0.616	0.548	0.549	0.533	0.537	0.477
coculture fibroblast: H6019	0.789	0.689	0.637	0.573	0.538	0.532	0.507	0.484	0.471
coculture fibroblast: H6076	0.81	0.754	0.736	0.7618	0.668	0.672	0.66	0.651	0.692
coculture fibroblast: H6231	0.816	0.778	0.6691	0.649	0.555	0.528	0.485	0.452	0.437
coculture fibroblast: HADF	0.745	0.632	0.588	0.551	0.465	0.451	0.41	0.39	0.328
coculture fibroblast: HCFa	0.801	0.663	0.597	0.551	0.473	0.459	0.42	0.397	0.339
coculture fibroblast: HCPF	0.849	0.715	0.684	0.72	0.619	0.6	0.577	0.551	0.561
coculture fibroblast: HHSteC	0.826	0.725	0.68	0.616	0.545	0.523	0.48	0.458	0.39
coculture fibroblast: HMF	0.798	0.786	0.686	0.608	0.524	0.469	0.416	0.374	0.372
coculture fibroblast: HPFa	0.916	0.819	0.748	0.661	0.587	0.569	0.516	0.498	0.489
coculture fibroblast: HUF	0.885	0.771	0.737	0.658	0.605	0.601	0.558	0.539	0.535
coculture fibroblast: Hs5	0.8676	0.8201	0.764	0.728	0.617	0.576	0.54	0.512	0.508
coculture fibroblast: Hs27A	0.744	0.673	0.613	0.609	0.513	0.529	0.503	0.497	0.415
coculture fibroblast: Hs343T	0.78711	0.732	0.659	0.608	0.512	0.455	0.413	0.399	0.399
coculture fibroblast: WS1	0.795	0.661	0.593	0.491	0.425	0.403	0.3723	0.3709	0.3764
